PubChem BioAssay AID1159578 – Peter MacCallum Cancer Centre | 2015
This is a random part of about 18,000 reagents. About 1,030 of them (5.7%) were called active. 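Inactive calls also include pools with fewer than 3300 nuclei, whose migration was not assessed.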 The raw values are shown without normalisation. Further read-outs or replicates are left out here.

Aim: 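Genome-wide hunt for genes controlling movement of lymphatic endothelial cells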 (primary screen)
Cells: human lymphatic endothelial cells
Knock-down reagent: siRNA pool against human genes, 40 nM
Timing: 48 h after transfection
Read-out: 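High-content imaging of dye-stained cells in a scratch assay measures filled wound area and nuclei per well; duplicate means given as ratio to mock and robust z-score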
Direction: migration robust z-score: higher = faster migration into the scratch; nuclei per well: higher = more cells in the well
Rule for the call: 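Migration changed when robust z exceeds 2 or falls below -2 and mean nuclei number is at least 3300; otherwise not called changed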
Meaning of the calls: active = migration changed; inactive = no migration change, or too few cells

KRTAP3-1
- migration robust z-score: -1.98
- migration class with cell-count check: migration z between -2 and 2; enough cells
- nuclei per well, duplicate mean: 4410
- Outcome: inactive

KCNK6
- migration robust z-score: -1.34
- migration class with cell-count check: migration z between -2 and 2; enough cells
- nuclei per well, duplicate mean: 4921
- Outcome: inactive

SIAE
- migration robust z-score: -0.88
- migration class with cell-count check: migration z between -2 and 2; enough cells
- nuclei per well, duplicate mean: 5972
- Outcome: inactive

NSUN7
- migration robust z-score: 0.95
- migration class with cell-count check: migration z between -2 and 2; enough cells
- nuclei per well, duplicate mean: 4311
- Outcome: inactive

TSC22D4
- migration robust z-score: 0.43
- migration class with cell-count check: migration z between -2 and 2; enough cells
- nuclei per well, duplicate mean: 6418
- Outcome: inactive

IRX4
- migration robust z-score: 0.83
- migration class with cell-count check: migration z between -2 and 2; enough cells
- nuclei per well, duplicate mean: 7492
- Outcome: inactive

ASB7
- migration robust z-score: -2.08
- migration class with cell-count check: migration z below -2; enough cells
- nuclei per well, duplicate mean: 5724
- Outcome: active

Continued (2 carried over from the part before).
IRX4
- migration robust z-score: 0.83
- migration class with cell-count check: migration z between -2 and 2; enough cells
- nuclei per well, duplicate mean: 7492
- Outcome: inactive

ASB7
- migration robust z-score: -2.08
- migration class with cell-count check: migration z below -2; enough cells
- nuclei per well, duplicate mean: 5724
- Outcome: active

USP48
- migration robust z-score: 1.2
- migration class with cell-count check: migration z between -2 and 2; enough cells
- nuclei per well, duplicate mean: 5596
- Outcome: inactive

DNAJB11
- migration robust z-score: -0.9
- migration class with cell-count check: migration z between -2 and 2; enough cells
- nuclei per well, duplicate mean: 6241
- Outcome: inactive

AMPD3
- migration robust z-score: 1.3
- migration class with cell-count check: migration z between -2 and 2; enough cells
- nuclei per well, duplicate mean: 6135
- Outcome: inactive

STXBP1
- migration robust z-score: -0.06
- migration class with cell-count check: migration z between -2 and 2; enough cells
- nuclei per well, duplicate mean: 5750
- Outcome: inactive

MIR22HG
- migration robust z-score: -0.46
- migration class with cell-count check: migration z between -2 and 2; enough cells
- nuclei per well, duplicate mean: 6406
- Outcome: inactive
